Record: PubChem BioAssay AID1259308 (NCATS, 2017)

Aim: 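Knock-downs that increase output of a recombinant reporter protein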 (primary screen)
System: human HEK293 embryonic kidney cells stably expressing firefly luciferase (HEK-CMV-Luc2-Hygro)
Reagent: single siRNA against human genes, 0.8 pmol siRNA per well
Timing: 72 h
Read-out: 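Reporter luminescence and viable-cell signal on separate replicate plates, given as percent of non-targeting control and median/MAD z-scores, plus per-cell luciferase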
Scale: total luciferase, z-score and total luciferase, % of control: higher = more reporter protein produced; luciferase per cell, z-score: higher = more reporter output per viable cell; viable cells, % of control: higher = more viable cells
Call rule: 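An siRNA counts as active if its total luciferase robust z-score exceeds 3; genes with two or more such siRNAs out of three were retested with fresh siRNAs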
Calls: active = raised luciferase; inactive = no rise
This is a random part of about 59,000 reagents. About 1,510 of all reagents (2.6%) were called active. 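Calls use total luciferase alone and ignore viability, so some active siRNAs may act by altering cell number.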 Unmarked entries are inactive. The numbers tell different reagents against one gene apart.

| target gene | reagent | total luciferase, z-score | total luciferase, % of control | luciferase per cell, z-score | viable cells, % of control |
| --- | --- | --- | --- | --- | --- |
| NPFFR1 (neuropeptide FF receptor 1) | 1 | 0.0737 | 83.4 | 0.324 | 85.5 |
| NPFFR1 (neuropeptide FF receptor 1) | 2 | -1.53 | 51.5 | -1.21 | 79.2 |
| NPFFR1 (neuropeptide FF receptor 1) | 3 | -1.64 | 49.2 | -1.78 | 87.7 |
| B3GAT1 (beta-1,3-glucuronyltransferase 1) | 1 | -1.04 | 61.2 | -0.528 | 78.6 |
| B3GAT1 (beta-1,3-glucuronyltransferase 1) | 2 | 1.98 | 121 | 1.71 | 86.5 |
| B3GAT1 (beta-1,3-glucuronyltransferase 1) | 3 | 2.57 | 133 | 2.23 | 82.5 |
| PARP9 (poly(ADP-ribose) polymerase family member 9) | 1 | 0.609 | 94 | 0.976 | 81.2 |
| PARP9 (poly(ADP-ribose) polymerase family member 9) | 2 | -0.639 | 69.2 | -0.86 | 96.9 |
| PARP9 (poly(ADP-ribose) polymerase family member 9) | 3 | -0.317 | 75.6 | -0.428 | 94.5 |
| ZC3H18-DT (ZC3H18 divergent transcript) | 1 | 0.166 | 85.2 | 0.316 | 87.6 |
| ZC3H18-DT (ZC3H18 divergent transcript) | 2 | -1.36 | 54.9 | -1.14 | 82.8 |
| ZC3H18-DT (ZC3H18 divergent transcript) | 3 | -0.113 | 79.6 | -0.33 | 97.1 |
| FAM227B (family with sequence similarity 227 member B) | 1 | -0.788 | 66.2 | -1.34 | 105 |
| FAM227B (family with sequence similarity 227 member B) | 2 | -0.563 | 70.7 | -1.03 | 103 |
| FAM227B (family with sequence similarity 227 member B) | 3 | 0.114 | 84.1 | -0.833 | 117 |
| GAP43 (growth associated protein 43) | 1 | -1.6 | 50.1 | -1.59 | 85 |
| GAP43 (growth associated protein 43) | 2 | -0.175 | 78.4 | -0.321 | 95.3 |
| GAP43 (growth associated protein 43) | 3 | 1.81 | 118 | 1.84 | 81.2 |
| STIP1 (stress induced phosphoprotein 1) | 1 | -0.743 | 67.1 | -0.79 | 92.3 |
| STIP1 (stress induced phosphoprotein 1) | 2 | -0.728 | 67.4 | -0.943 | 96.6 |
| STIP1 (stress induced phosphoprotein 1) | 3 | -0.201 | 77.9 | -1.04 | 114 |
| GINS4 (GINS complex subunit 4) | 1 | 0.0362 | 82.6 | 0.546 | 79.9 |
| GINS4 (GINS complex subunit 4) | 2 | 0.714 | 96.1 | 0.972 | 83.1 |
| GINS4 (GINS complex subunit 4) | 3 | 0.675 | 95.3 | 0.859 | 84.9 |

Reprinted from the entries so far (3 entries):
| target gene | reagent | total luciferase, z-score | total luciferase, % of control | luciferase per cell, z-score | viable cells, % of control |
| --- | --- | --- | --- | --- | --- |
| PARP9 (poly(ADP-ribose) polymerase family member 9) | 1 | 0.609 | 94 | 0.976 | 81.2 |
| PARP9 (poly(ADP-ribose) polymerase family member 9) | 2 | -0.639 | 69.2 | -0.86 | 96.9 |
| PARP9 (poly(ADP-ribose) polymerase family member 9) | 3 | -0.317 | 75.6 | -0.428 | 94.5 |
